Assay results: the supplement of paper PMC6143611
± gives the uncertainty stated by the source. The list shows a part of the results. Plates or batches differ in their baseline, so values are only roughly comparable.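 A heat-shock-induced fluorescent stripe was set in larval rod outer segments at 6 dpf. Shedding distance ran from stripe to outer segment tip, measured by confocal stacks in about three fish per compound. Controls: 0.2% DMSO vehicle. Flagged compounds showed ≥20% change from same-week control, p < 0.001 (Dunnett test on mixed-effects models).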

What was measured:
[1] = system: Danio rerio larva rod photoreceptor outer segment; test: rod outer segment growth distance Dg, difference from same-week DMSO control mean; higher = more outer segment growth; conditions: 20 µM; treatment time: 4 days (6-10 dpf)
[2] = system: Danio rerio larva rod photoreceptor outer segment; test: rod outer segment shedding distance Ds, difference from same-week DMSO control mean; higher = less outer segment shedding; conditions: 20 µM; treatment time: 4 days (6-10 dpf)

Compound	rod outer segment growth distance Dg [1]	rod outer segment shedding distance Ds [2]
CC(=O)Oc1cc2c(s1)CCN(C(C(=O)C1CC1)c1ccccc1F)C2 (stereo not given) [Prasugrel]	0.19 ± 0.23 um	-0.08 ± 0.23 um
O=c1c(-c2ccc(O)cc2)coc2cc(O)ccc12 [Daidzein]	-0.92 ± 0.18 um	-1.12 ± 0.26 um
O=S(=O)(c1ccccc1)c1cnc2c(N3CCNCC3)cccc2c1	-0.73 ± 0.25 um	0.43 ± 0.16 um
CC1(C)[C@@H](O[C@H]2O[C@H](C(=O)O)[C@@H](O)[C@H](O)[C@H]2O[C@@H]2O[C@H](C(=O)O)[C@@H](O)[C@H](O)[C@H]2O)CC[C@]2(C)[C@H]3C(=O)C=C4[C@@H]5C[C@@](C)(C(=O)O)CC[C@]5(C)CC[C@@]4(C)[C@]3(C)CC[C@@H]12 [Glycyrrhizic Acid]	0.41 ± 0.3 um	0.76 ± 0.23 um
CC(C)n1nc(-c2cc3cc(O)ccc3[nH]2)c2c(N)ncnc21	0.16 ± 0.23 um	-0.8 ± 0.34 um
COc1cc(C(=O)NS(=O)(=O)c2ccccc2C)ccc1Cc1cn(C)c2ccc(NC(=O)OC3CCCC3)cc12 [Zafirlukast]	0.37 ± 0.28 um	-0.75 ± 0.14 um
C[C@]12CCC(=O)C=C1[C@@H]1C[C@@H]1[C@H]1[C@@H]3[C@@H]4C[C@@H]4[C@@]4(CCC(=O)O4)[C@@]3(C)CC[C@@H]12 [Drospirenone]	-2.96 ± 0.37 um	0.02 ± 0.29 um
CCc1cccc2c3c([nH]c12)C(CC)(CC(=O)O)OCC3 (stereo not given) [Etodolac]	1.48 ± 0.17 um	-0.13 ± 0.18 um
OCCN(CCO)c1nc(N2CCCCC2)c2nc(N(CCO)CCO)nc(N3CCCCC3)c2n1 [Dipyridamole]	0.51 ± 0.17 um	-0.21 ± 0.22 um
CC(=O)OCC(=O)[C@@]12N=C(C)O[C@@H]1C[C@H]1[C@@H]3CCC4=CC(=O)C=C[C@]4(C)[C@H]3[C@@H](O)C[C@@]12C [Deflazacort]	0.03 ± 0.22 um	-0.25 ± 0.31 um

Retrieved one by one from the entries so far (2):
Compound	rod outer segment growth distance Dg [1]	rod outer segment shedding distance Ds [2]
CC1(C)[C@@H](O[C@H]2O[C@H](C(=O)O)[C@@H](O)[C@H](O)[C@H]2O[C@@H]2O[C@H](C(=O)O)[C@@H](O)[C@H](O)[C@H]2O)CC[C@]2(C)[C@H]3C(=O)C=C4[C@@H]5C[C@@](C)(C(=O)O)CC[C@]5(C)CC[C@@]4(C)[C@]3(C)CC[C@@H]12 [Glycyrrhizic Acid]	0.41 ± 0.3 um	0.76 ± 0.23 um
COc1cc(C(=O)NS(=O)(=O)c2ccccc2C)ccc1Cc1cn(C)c2ccc(NC(=O)OC3CCCC3)cc12 [Zafirlukast]	0.37 ± 0.28 um	-0.75 ± 0.14 um
